At least one compound was matched to its structure with a doubt left.
Tested on: dopaminergic neurons (TH+) of rat mesencephalon cultures
Test: tritiated dopamine reuptake per TH+ dopaminergic neuron in mesencephalon cultures
Type: cell-based
Set-up: key: a favorable response, synonymous with an increase in dopamine reuptake per TH^+ neuron (Table 1) or with an increase in neurite length per TH^+ neuron (Table 2), in the presence of the treatments of interest, is denoted by a “+”, “++” or “+++” sign, depending on the size of this response; a favorable response ... is denoted by a “+”, “++” or “+++” sign, depending on the size of this response; a favorable response ... is denoted by a “+”, “++” or “+++” sign, depending on the size of this response; an absence of response is represented by a “—” sign
Conditions: cultures of mesencephalon at D14; treatment D7-D14 (7 days); memantine 10 μM; gas mixture 20% O2 + 5% CO2 + 75% gas tested (N2 or Xe)
Description: Cultures are prepared from mesencephalon of rat embryos, taking from female Wistar rats, on day 15.5 of gestation.
The process for obtaining the mesencephalon cultures comprises the obtaining of a homogeneous cell suspension by mechanical dissociation, that is to say non-enzymatic dissociation, of the embryonic tissue, using Leibovitz's L15 medium (Sigma Aldrich).
Aliquots of this suspension are added to 48-well Nunc plates, which have been precoated with a thin layer of polyethyleneimine (1 mg/ml, borate buffer, pH 8.3) so as to allow the adhesion of neuronal cells (Toulorge et al., Faseb J, 2011).
The seeding density is between approximately 80 000 and 100 000 cells/cm^2.
The mesencephalon cultures are maintained in Minimum Essential culture Medium (MEM), containing 1 g/l of glucose, 2 mM of L-glutamine, 1 mM of sodium pyruvate, non-essential amino acids and a penicillin/streptomycin cocktail. For the first week of culture, this medium is supplemented with 10% of fetal calf serum and 10% of horse serum. Starting from the second week, the serum concentrations are reduced to 2% (Gao et al., J Neurosci, 2002).
Up until the moment when the effects of the gases of interest are evaluated, the cultures are placed in a conventional enclosure thermostated at 37° C., in which the CO2 is maintained at 5% by volume and wherein the atmosphere is saturated with water. […]

## [Xe] [Xenon, xenon]
  Dopamine reuptake/TH^+ neuron: ++

— US20170246204A1, “MEDICAMENT FOR TREATING A DISEASE RELATING TO A DYSFUNCTION OF THE DOPAMINERGIC SYNAPTIC TRANSMISSION” (L'Air Liquide, Société Anonyme pour l'Etude et …, priority 2014, published 2017)
